The target of this assay is purified recombinant human PSMA protein (PSMA extracellular domain, baculovirus-insect cell expression) (human) (UniProt Q04609). Description: Biacore SPR. (In general: In SPR one partner is held on a chip, and binding of the other changes the refractive index at the surface.)

Protein sequences, listed by entry. Tags and fused reporters are not part of them. Lines headed by an entry give the natural chain unless they say otherwise; changes in a name come on top.
UniProt Q04609: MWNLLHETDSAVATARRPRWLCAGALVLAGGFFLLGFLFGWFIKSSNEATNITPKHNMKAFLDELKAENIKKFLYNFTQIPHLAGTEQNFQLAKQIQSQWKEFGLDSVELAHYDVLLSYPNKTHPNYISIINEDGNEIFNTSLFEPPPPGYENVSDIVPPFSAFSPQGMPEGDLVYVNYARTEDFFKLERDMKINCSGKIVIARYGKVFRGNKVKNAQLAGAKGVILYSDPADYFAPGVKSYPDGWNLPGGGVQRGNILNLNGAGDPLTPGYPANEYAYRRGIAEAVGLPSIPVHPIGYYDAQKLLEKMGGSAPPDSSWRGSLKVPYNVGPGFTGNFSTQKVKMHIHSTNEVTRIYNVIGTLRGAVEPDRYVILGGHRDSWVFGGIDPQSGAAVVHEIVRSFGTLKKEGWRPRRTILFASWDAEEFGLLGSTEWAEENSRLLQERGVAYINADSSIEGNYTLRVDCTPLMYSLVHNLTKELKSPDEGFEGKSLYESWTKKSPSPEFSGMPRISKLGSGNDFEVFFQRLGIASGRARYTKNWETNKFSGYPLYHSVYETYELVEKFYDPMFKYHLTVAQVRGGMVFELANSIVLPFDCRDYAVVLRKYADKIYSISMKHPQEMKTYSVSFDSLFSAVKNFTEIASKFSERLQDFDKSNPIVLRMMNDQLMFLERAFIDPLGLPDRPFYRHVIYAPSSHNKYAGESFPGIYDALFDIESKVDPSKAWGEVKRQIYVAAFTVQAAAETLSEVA

No constants are given. Whether binding was seen depends on the method and setting. Some entries that bind do so weakly or less than the wild type.

B1: anti-PSMA mouse monoclonal antibody #1366 (antibody, V domains shown)
VH: VKLQESGPGLVAPSQSLSITCTVSGFSLTDYGVSWIRQPPGKGLEWLGVIWSDGNTYYNSPLKSRLSINKDNSKSQVFLKMNSLQTDDSAMYYCARHKVYTMDYWGQGTSVTVSS
VL: TVLTQSPAIMSASPGEKVTMTCRASSSVSSSYLHWYQQKSSASPKLWIYRTSNLASGVPARFSGSGSGTSYSLTISSLEAEDAATYYCQQYSGYPLTFGAGTKLELKR
For B1, the binding entry is “binds”.

B2: anti-PSMA mouse monoclonal antibody #1207 (antibody, V domains shown)
VH: VKLQQSGPGLVKPSQSLSLTCAVTGYSITSDYAWNWIRKFPGNKLEWMGYISYSGRTTYNPSLESRISITRDTSKNQFFLQLNSVTTEDTATYYCARCYYGSSSRWYGMDYWGRGTSVAVSS
VL: IVLTQSPAIMSASPGVKVTMTCRASSSVDSSYLHWYQQKSGASPQVWIYSTSNLASGVPARFSGSGSGTSYSLTISSVEAEDAATYYCQQYSGYPLTFGGGTKLEIKR
For B2, the binding result is “binds”.

B3: anti-PSMA mouse monoclonal antibody #1377 (antibody, V domains shown)
VH: VQLQQPGAALVRPGASVRLSCKASGYSFTYYWMNWVMQRPGQGLEWIGMIHPSDSETRLSQKFRDKATLTVDKSSSTVYMQLNSPTSDDSAVYYCARDGNFPYYALDYWGQGTSVTVSS
VL: DVVLTQAPLSLPVSLGDQASISCRSSQSLEYSNGNTYLHWYLQKPGQSPELLIYTVSNRFSGVPDRFSGSGSGTDFTLKIHRVEAEDLGVYFCSQSTHVPTFGGGTKLEIKR
Take B3: the binding entry is “binds”.

B4: anti-PSMA mouse monoclonal antibody #219 (antibody, V domains shown)
VH: VQLQQSGPELEKPGASVKMSCKASGYSFTGYNVNWVRQNNGKSLEWIGNIDPLHGGTTYNQKFKAKATLTVDRSSSTAYLQLKNLTSEDSAVYYCARSSRFDYWGQGTTLTVSS
VL: DIVMTQSHKFMSTSVGDRVNITCKASQDVGTAVAWYQQKPGQSPKLLIYWASTRHTGVPDRFTGSGSGTDFTLTISNVQSEDLADYFCHQFTSYPFTFGSGTSLEMKR
On to B4, for which the binding result is given as “binds”.

B5: anti-PSMA mouse monoclonal antibody #1352 (antibody, IgG2b, V domains shown)
VH: VKLQQSGPELEKPGASVKISCKASGYSFTGYNVNWVKQSNGKSLEWIGNIDPYHGGTTYNQKFEAKATLTVDKSSSTAYMQLKSLTSEDSAVYYCARSSRFDYWGQGTTLTVSS
VL: DIVMTQSHKFMSTSVGDRVNITCKASQDVGTAVAWYQQKPGQSPKFLIYWASTRHTGVPDRFTGSGSGTDFTLTISNVQSEDLADYFCHQYTSYPFTFGSGTKLEMKR
For the molecule B5, the binding result is “binds”.
